# Test results published in PMC5177617.
# No constants are given. Whether binding was seen depends on the method and setting.
# B1: soluble DC-SIGN tetramer (entire extracellular domain including the α-helical neck region), Q9NNX6 59-404 (domain or fragment)
# chain: QVSKVPSSISQEQSRQDAIYQNLTQLKAAVGELSEKSKLQEIYQELTQLKAAVGELPEKSKLQEIYQELTRLKAAVGELPEKSKLQEIYQELTWLKAAVGELPEKSKMQEIYQELTRLKAAVGELPEKSKQQEIYQELTRLKAAVGELPEKSKQQEIYQELTRLKAAVGELPEKSKQQEIYQELTQLKAAVERLCHPCPWEWTFFQGNCYFMSNSQRNWHDSITACKEVGAQLVVIKSAEEQNFLQLQSSRSNRFTWMGLSDLNQEGTWQWVDGSPLLPSFKQYWNRGEPNNVGEEDCAEFSGNGWNDDKCNLAKFWICKKSAASCSRDEEQFLSPAPATPNPPPA
# Biological target: bovine serum albumin (negative control), P02769
# Test: condition: 50 µg of DC-SIGN tetramer on 15 µg of blotted protein; far-Western, overlay or dot blot; 15 µg of ghA, ghB, ghC, MBP or BSA run on 12% SDS-PAGE and blotted; probed with 50 µg of DC-SIGN tetramer overnight at room temperature; detected with anti-DC-SIGN polyclonal antibody and Protein A-HRP; both purified
# Details: remark: other sources report otherwise
binder,measurement,value
B1,binding,no binding
